Results as given in US7385395B2, “Apparatus for preparing a solution of a hyperpolarized noble gas for NMR and MRI analysis” (priority 1996, dated 2008).

Assay: 129Xe-1H SPINOE cross-relaxation (xenon coupling/binding to molecules in solution)

| Structure (SMILES) | xenon coupling constants relative to α-cyclodextrin (SPINOE) | ratio of the cross-relaxation rates of α-cyclodextrin and p-nitrotoluene (SPINOE with laser-polarized xenon, α-cyclodextrin in perdeuterated DMSO) |
| --- | --- | --- |
| OC[C@H]1O[C@@H]2O[C@H]3[C@H](O)[C@@H](O)[C@@H](O[C@H]4[C@H](O)[C@@H](O)[C@@H](O[C@H]5[C@H](O)[C@@H](O)[C@@H](O[C@H]6[C@H](O)[C@@H](O)[C@@H](O[C@H]7[C@H](O)[C@@H](O)[C@@H](O[C@H]8[C@H](O)[C@@H](O)[C@@H](O[C@H]1[C@H](O)[C@H]2O)O[C@@H]8CO)O[C@@H]7CO)O[C@@H]6CO)O[C@@H]5CO)O[C@@H]4CO)O[C@@H]3CO [β-cyclodextrin] | two orders of magnitude smaller | – |
| OC[C@H]1O[C@@H]2O[C@H]3[C@H](O)[C@@H](O)[C@@H](O[C@H]4[C@H](O)[C@@H](O)[C@@H](O[C@H]5[C@H](O)[C@@H](O)[C@@H](O[C@H]6[C@H](O)[C@@H](O)[C@@H](O[C@H]7[C@H](O)[C@@H](O)[C@@H](O[C@H]1[C@H](O)[C@H]2O)O[C@@H]7CO)O[C@@H]6CO)O[C@@H]5CO)O[C@@H]4CO)O[C@@H]3CO [α-cyclodextrin] | – | approximately 100 |
